For some of these results: End groups of sequences in plain letters are not given here.

Data set [1] can be described thus: general procedure: Fmoc solid-phase peptide synthesis; Rink amide resin (NovaSyn TGR resin preferred for Intavis); HOBT, HBTU, HCTU. As to conditions: whole synthesis, Method A, scale of the general procedure 5 μmol.
The nature of data set [2]: general procedure: Fmoc solid-phase peptide synthesis; Rink amide resin; HOBT, HBTU, HCTU. As to conditions: whole synthesis, scale 5 μmol.

For DVFNSSEkRRSADNFI, the “final purity (method not given)” value in data set [1] amounted to 87%.
Consider DVFRSSEkRRSADNFI, for which, in data set [1], the “final purity (method not given)” value turned out to be 82%.
Turning to DVHRSSEkRRSADIFI, the “final purity (method not given)” value in data set [1] came out at 88%.
As to PEkRRSADIFP, in data set [1], the “final purity (method not given)” value stood at 93.4%.
Still for that read-out and setting: the result for PK(PkRRSADIFP)RRSADIFP reads 97%; that for PTVFRSPSEkRRSADIFI, 84.9%.
Turning to Pal-DVFQSEkRRSADQFI-amide, the “final purity (method not given)” value in data set [1] (run 1) is 80.7%; in data set [1] (run 2) it was 71%. The same substance returned an isolated mass in data set [2] of 2.7 mg.
The like results for Pal-DVFQSSEkRRSADQFI-amide were, in that order, 83.2%, 72% and 3 mg.
The like results for Pal-DVFRSSEkRRSADQFI-amide were, in that order, 83.8%, 70% and 3.8 mg.
The matching figures for Pal-DVHRSSEkRRSADQFI-amide: 70%, 96% and 2 mg.
Turning to Pal-PkRRSADIFIP-amide, the “final purity (method not given)” value in data set [1] (run 1) amounted to 70.5%; in data set [1] (run 2), 71%. In addition, the isolated mass in data set [2] is listed as 2 mg.
Turning to Pal-TVFQSSEkRRSADFI-amide, the “final purity (method not given)” value in data set [1] amounted to 70%. The substance also had an isolated mass in data set [2] of 2 mg.
As to Pal-TVFRSSE(d-Orn)RRSADIFI-amide, the “final purity (method not given)” value in data set [1] (run 1) is listed as 92.4%; in data set [1] (run 2), 92%. In addition, in data set [2], the isolated mass stood at 2.2 mg.
With TPVFRSSPEkRRSADIFI, the “final purity (method not given)” value in data set [1] came out at 82%.
Take TVD(N-Me-Arg)SSEkRRSADIFI: the “final purity (method not given)” value in data set [1] stood at 71%.
Still for that read-out and setting: the result for TVDRSSEkRRSAD(p-CH2NH2-Phe)FI reads 92%; that for TVDRSSEkRRSAD(p-fluoro-Phe)FI, 78%; that for TVDRSSKEkRRSADIFI, 70%.
Same read-out and setting: with TVDRSSQEkRRSADIFI the figure was 85.4%; with TVDRSSREkRRESADIFI, 80%.
On to TVF(N-Me-Arg)SSEkRRSADIFI, for which, in data set [1], the “final purity (method not given)” value is 70%.
On the same count and under the same terms, with TVFQSEkRRSADFI the figure was 77%; with TVFRSEkRRSADQFI, 70%.
Still for that read-out and setting: with TVFRSPSEkRRPSADIF the figure was 84%; with TVFRSSEPkRRSADIFI, 77%.
Same read-out and setting: the result for TVFRSSEPkRRSADIFP reads 75%.
In the case of TVFRSSEaRRSADIFI, the “final purity (method not given)” value in data set [1] turned out to be 89%.
Regarding TVFRSSEkRRPSADIFP, in data set [1], the “final purity (method not given)” value was determined as 75%.
The same measure, in the same setting: the result for TVFRSSEkRRSAD(Bip)FI reads 94%; that for TVFRSSEkRRSADNFI, 84%; that for TVFRSSPEkRRSADIFI, 82%.
Same read-out and setting: with TVFRSSPEkRRSADIFP the figure was 89%.
Still for that read-out and setting: with TVFRSSPEkRRSPADIF the figure was 84%.
As to TVKRSSEkRRSADIFI, the “final purity (method not given)” value in data set [1] is 72%.
Same read-out and setting: the result for TVPFRSSEPkRRSADIFI reads 74%.
Still for that read-out and setting: with pTVFRSpSEkRRSADIF the figure was 88%.

The record behind these values is US20160159861A1 (priority 2013, published 2016).
